Measurements: paper PMC8357632
Results are given in words; binding and its absence hold for the method and conditions named. In cells and extracts the contact can be indirect. Some binding calls cover weakened binding; strength is not graded here.

Assays:
[1] = molecular target: T1, Rse1 (S. cerevisiae (endogenous in yeast whole-cell extract)) (UniProt Q04693); test: cross-linking; CXMS: MS2 affinity-purified ΔBS-A pre-A complexes cross-linked with 250 μM BS3 for 1 h at 8 °C, glycerol gradient, tryptic digest, mass spectrometry, pLink 2.3.9, FDR 1% or 5%
T1 sequence: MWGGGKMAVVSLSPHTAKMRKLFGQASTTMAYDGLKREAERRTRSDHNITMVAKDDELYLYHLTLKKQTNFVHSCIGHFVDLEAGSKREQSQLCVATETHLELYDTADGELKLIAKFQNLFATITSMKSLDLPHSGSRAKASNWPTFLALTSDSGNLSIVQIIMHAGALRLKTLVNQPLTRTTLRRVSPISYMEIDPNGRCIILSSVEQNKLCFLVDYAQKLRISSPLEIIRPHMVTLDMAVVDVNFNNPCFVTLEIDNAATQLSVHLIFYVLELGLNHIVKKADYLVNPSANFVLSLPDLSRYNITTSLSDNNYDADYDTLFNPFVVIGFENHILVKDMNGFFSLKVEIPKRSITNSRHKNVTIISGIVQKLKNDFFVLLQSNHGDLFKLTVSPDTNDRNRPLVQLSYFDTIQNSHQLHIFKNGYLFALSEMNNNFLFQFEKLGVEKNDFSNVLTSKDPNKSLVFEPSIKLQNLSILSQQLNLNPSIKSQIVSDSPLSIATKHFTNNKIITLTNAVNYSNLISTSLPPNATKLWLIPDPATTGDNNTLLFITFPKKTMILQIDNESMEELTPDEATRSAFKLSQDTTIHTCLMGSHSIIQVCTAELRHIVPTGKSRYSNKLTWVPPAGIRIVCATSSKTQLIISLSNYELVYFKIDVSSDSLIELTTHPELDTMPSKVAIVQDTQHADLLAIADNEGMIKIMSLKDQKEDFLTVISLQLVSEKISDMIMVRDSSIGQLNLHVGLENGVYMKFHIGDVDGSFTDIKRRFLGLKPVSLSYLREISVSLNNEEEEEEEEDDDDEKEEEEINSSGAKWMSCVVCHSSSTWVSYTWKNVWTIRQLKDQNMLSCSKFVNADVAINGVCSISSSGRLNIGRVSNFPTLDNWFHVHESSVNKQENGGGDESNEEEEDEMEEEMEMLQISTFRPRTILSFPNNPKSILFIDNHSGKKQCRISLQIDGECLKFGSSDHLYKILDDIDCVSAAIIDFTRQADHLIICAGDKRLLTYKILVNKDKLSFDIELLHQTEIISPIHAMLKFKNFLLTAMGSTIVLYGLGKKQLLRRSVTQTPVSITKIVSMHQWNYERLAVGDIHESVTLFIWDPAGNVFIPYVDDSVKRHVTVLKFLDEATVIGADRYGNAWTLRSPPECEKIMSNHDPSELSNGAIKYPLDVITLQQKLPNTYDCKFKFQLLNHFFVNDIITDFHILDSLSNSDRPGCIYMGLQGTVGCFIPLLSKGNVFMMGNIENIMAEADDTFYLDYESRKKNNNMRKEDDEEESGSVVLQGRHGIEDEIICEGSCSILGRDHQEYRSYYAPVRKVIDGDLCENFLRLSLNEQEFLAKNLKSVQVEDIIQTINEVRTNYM

[2] = molecular target: T2, Snu71 (S. cerevisiae (endogenous in yeast whole-cell extract)) (UniProt P53207); test: as above
T2 sequence: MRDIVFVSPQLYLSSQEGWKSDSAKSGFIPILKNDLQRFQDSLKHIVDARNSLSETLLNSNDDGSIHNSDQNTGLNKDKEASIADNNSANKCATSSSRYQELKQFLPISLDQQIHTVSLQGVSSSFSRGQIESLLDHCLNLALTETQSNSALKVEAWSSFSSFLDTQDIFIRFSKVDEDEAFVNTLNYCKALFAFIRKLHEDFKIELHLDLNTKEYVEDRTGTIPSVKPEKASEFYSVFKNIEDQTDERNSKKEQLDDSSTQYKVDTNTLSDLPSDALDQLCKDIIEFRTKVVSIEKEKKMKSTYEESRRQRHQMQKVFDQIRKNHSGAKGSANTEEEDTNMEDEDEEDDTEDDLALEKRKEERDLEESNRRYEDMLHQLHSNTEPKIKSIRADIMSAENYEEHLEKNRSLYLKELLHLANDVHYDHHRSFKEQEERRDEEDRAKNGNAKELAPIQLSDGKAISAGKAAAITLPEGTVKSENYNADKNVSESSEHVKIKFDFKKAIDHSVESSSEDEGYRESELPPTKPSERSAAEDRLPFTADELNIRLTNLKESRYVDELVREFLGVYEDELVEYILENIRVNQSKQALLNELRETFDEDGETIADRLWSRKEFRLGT

binding [1]: binds
binding [2]: binds
B1: Prp5 (enzyme, UniProt P21372 1-849)
chain: METIDSKQNINRESLLEERRKKLAKWKQKKAQFDAQKEHQTSRNDIVTNSLEGKQTTEKFTERQERVKEELRKRKNEFRKSDEPVSVKPSKKKSKRSKVKKKISFDFSDDDDSEIGVSFRSKEHIQKAPEHDNEKDPLDEFMTSLKEEKMSNSKGMYDRGDILDVEDQLFELGGTDDEDVEDNTDNSNIAKIAKLKAKKRVKQIYYSPEELEPFQKNFYIESETVSSMSEMEVEELRLSLDNIKIKGTGCPKPVTKWSQLGLSTDTMVLITEKLHFGSLTPIQSQALPAIMSGRDVIGISKTGSGKTISYLLPLLRQVKAQRPLSKHETGPMGLILAPTRELALQIHEEVTKFTEADTSIRSVCCTGGSEMKKQITDLKRGTEIVVATPGRFIDILTLNDGKLLSTKRITFVVMDEADRLFDLGFEPQITQIMKTVRPDKQCVLFSATFPNKLRSFAVRVLHSPISITINSKGMVNENVKQKFRICHSEDEKFDNLVQLIHERSEFFDEVQSENDGQSSDVEEVDAKAIIFVSSQNICDFISKKLLNAGIVTCAIHAGKPYQERLMNLEKFKREKNSILLCTEVLSRGLNVPEVSLVIIYNAVKTFAQYVHTTGRTARGSRSGTAITLLLHDELSGAYILSKAMRDEEIKALDPLQAKELQEMSAKFESGMKKGKFRLSKGFGGKGLENIKSKREEAQNKDLELKKNDKRSDDLEKKISNPREGHDSVSESSALIPRLNYELFKESTDGSIIFYAKVYINDLPQIVRWEATKNTTLLFIKHETGCSITNKGKFYPEGKEPKNENDEPKLYLLIEGQDEKDIQLSIELLEQKVKEGVVKAASLSLKSTKY
